Patent US11298344B2, “Composition for inhibiting sodium leak channel (NALCN), comprising n-benzhydryl quinuclidine derivatives” (Research & Business Foundation Sungkyunkwan University, priority 2018, dated 2022)
Some entries share one result that the patent states for a list of compounds.

Tested on: HEK293T cells that express M3R
Assay: Patch-clamp of HEK293T cells that express M3R, CCh-induced inward current
Assay type: cell-based, human
Settings: holding potential −80 mV

## Ic1ccccc1CNC1C2CCN(CC2)C1C(c1ccccc1)c1ccccc1 (stereo not shown) [L703606, 2-(Diphenylmethyl)-N-(2-iodobenzyl)quinuclidin-3-amine]
  inhibition of the CCh-induced inward current: ≥ 90%
